Source: PMC5598907
No constants are given. Whether binding was seen depends on the method and setting. Binding seen in cells or lysates may run through a third protein. Some binding calls cover weakened binding; strength is not graded here.

By UniProt entry, the sequences of proteins in these tests, tags left out. Residues count along the entry.
UniProt Q9UBP4, residues 22-350: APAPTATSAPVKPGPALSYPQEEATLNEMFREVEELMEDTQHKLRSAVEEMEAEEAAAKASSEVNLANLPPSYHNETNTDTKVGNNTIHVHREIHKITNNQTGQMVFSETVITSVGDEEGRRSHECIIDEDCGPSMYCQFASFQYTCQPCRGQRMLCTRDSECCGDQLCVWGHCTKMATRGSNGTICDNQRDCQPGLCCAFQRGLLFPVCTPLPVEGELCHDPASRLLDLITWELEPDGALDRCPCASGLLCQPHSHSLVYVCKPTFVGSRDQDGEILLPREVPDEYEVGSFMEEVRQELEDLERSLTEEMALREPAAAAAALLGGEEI
UniProt Q01974, residues 34-943: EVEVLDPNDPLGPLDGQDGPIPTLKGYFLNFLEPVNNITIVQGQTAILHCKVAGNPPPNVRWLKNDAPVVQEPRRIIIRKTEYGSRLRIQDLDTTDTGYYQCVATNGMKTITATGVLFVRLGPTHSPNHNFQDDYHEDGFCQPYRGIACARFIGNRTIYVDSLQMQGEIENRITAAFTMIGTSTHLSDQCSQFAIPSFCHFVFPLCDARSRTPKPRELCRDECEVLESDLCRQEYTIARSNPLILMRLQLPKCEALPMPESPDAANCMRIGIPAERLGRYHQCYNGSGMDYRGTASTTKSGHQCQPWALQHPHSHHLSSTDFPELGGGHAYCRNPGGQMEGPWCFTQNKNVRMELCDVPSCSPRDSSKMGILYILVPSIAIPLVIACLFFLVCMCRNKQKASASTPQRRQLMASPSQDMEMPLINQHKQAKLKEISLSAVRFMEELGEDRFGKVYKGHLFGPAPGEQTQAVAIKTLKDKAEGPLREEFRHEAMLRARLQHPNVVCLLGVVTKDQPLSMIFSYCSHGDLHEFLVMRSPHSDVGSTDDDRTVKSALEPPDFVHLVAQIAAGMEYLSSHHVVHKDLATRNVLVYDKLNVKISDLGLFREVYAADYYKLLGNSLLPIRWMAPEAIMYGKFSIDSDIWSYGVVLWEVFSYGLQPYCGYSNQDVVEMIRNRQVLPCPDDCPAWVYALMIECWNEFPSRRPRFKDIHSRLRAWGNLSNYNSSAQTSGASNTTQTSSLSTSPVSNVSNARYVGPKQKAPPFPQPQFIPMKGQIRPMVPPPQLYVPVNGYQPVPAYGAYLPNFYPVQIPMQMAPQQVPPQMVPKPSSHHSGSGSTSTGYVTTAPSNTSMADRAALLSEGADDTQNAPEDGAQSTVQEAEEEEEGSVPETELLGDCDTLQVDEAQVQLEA

What was measured:
[1] = target: human HA-tagged DKK3 secreted by adenovirus-transduced CHO cells (human) (UniProt Q9UBP4); experiment: co-IP; HUVECs stimulated with DKK3-CHO SN (supernatant of CHO cells overexpressing HA-tagged DKK3); immunoprecipitation of HA-binding protein, Western blot analysis
[2] = target: recombinant human dickkopf-related protein 3 (DKK3) (human) (UniProt Q9UBP4); experiment: co-IP; HUVECs stimulated with recombinant DKK3; immunoprecipitation of DKK3, Western blot analysis; only the target purified

tyrosine kinase receptor ROR2 (from UniProt Q01974 34-943)
binding [1]: binds
binding [2]: binds
